How the values were obtained:
Type in all cases: functional, cell-based
[1] = system: HepG2; assay: Cytotoxicity against human HepG2 cells incubated for 72 hrs by MTT assay; settings: HepG2, 72 h
[2] = system: A549; assay: Cytotoxicity against human A549 cells incubated for 72 hrs by MTT assay; settings: A549, 72 h
[3] = system: HCT-116; assay: Cytotoxicity against human HCT-116 cells incubated for 72 hrs by MTT assay; settings: HCT-116, 72 h
[4] = system: HeLa; assay: Cytotoxicity against human HeLa cells incubated for 72 hrs by MTT assay

`CC[C@@]1(O)C(=O)OCc2c1cc1n(c2=O)Cc2c-1nc1cc3c(cc1c2-c1ccc(F)c(OC)c1)OCO3` was tested, and the IC50 [1] was 137 nM, the IC50 [2] was 33.7 nM and the IC50 [3] was 36.1 nM. For the same compound, the IC50 [4] was 72.9 nM.
